# Out of some 360,000 compounds screened, about 610 (0.17%) were called active. The inconclusive results got no clear call from the source; some entries with a clear call stand among them for comparison. No stated cut-off is given here; in the data, active means inhibition above about 30%; inconclusive means no clear call, values can overlap the other calls; inactive means below that.
# System: Botulinum neurotoxin type A light chain protease (Clostridium botulinum A str. ATCC 3502)
# Assay: blockers of BoNT/A LC substrate cleavage – biochemical, flow cytometry, MLPCN library, primary screen (AID 588499); further: plate controls were buffer without enzyme for full effect and enzyme alone for no effect
# Conditions: multiplex microsphere protease substrate cleavage, at 10 µM, stronger effect = higher value
row,Compound,inhibition
1,CC(C)Oc1ccc(OCCNC2CCCC2)cc1,inactive: 1.7%
2,O=C(Nc1cccc2[nH]ncc12)c1ccc(F)cc1,inconclusive: 0.5%
3,COC(=O)c1ccc(Cn2c(C)c(C(=O)NCc3ccco3)sc2=O)o1,inactive: -0.1%
4,COC(=O)c1ccc(NS(=O)(=O)c2ccc(OC)cc2)cc1,inconclusive: 3.3%
5,O=C(/C=C/c1ccc(-c2ccccc2[N+](=O)[O-])o1)c1ccc(Br)cc1,inconclusive: 24.3%
6,CN1C2=NCCN2C(=O)c2ccccc21,inactive: -0.6%
7,COc1ccc(CNS(=O)(=O)CCNC(=O)c2cccc(OC)c2)cc1,inconclusive: 1.8%
8,CCCCSc1nc2sc3c(c2c(=O)n1-c1ccccc1)CCN(C)C3,active: 52%
9,Cc1cccc(-c2ncc(S(=O)(=O)C(C)(C)C)c(N)n2)c1,inconclusive: -44.4%
10,Cc1ccc(CSCC(=O)N(C)CC(=O)Nc2ccccc2C(F)(F)F)cc1,inconclusive: 1.2%
11,COc1ccccc1N1CCN(C(=O)Nc2cccc(Cl)c2)CC1,inconclusive: -8.5%
12,Cc1cccc(-n2c(SCC(=O)N3CCCC3)nc3n[nH]c(C)c3c2=N)c1,inconclusive: -7.7%
13,N#Cc1nc(COc2cccc(Cl)c2)oc1NCc1ccco1,inactive: -0.8%
14,Cc1noc(C)c1CSc1nc2ccccc2c(=O)n1-c1ccc(Cl)cc1,inconclusive: 2.7%
15,CC(C)(C)c1nc(Sc2ncccc2[N+](=O)[O-])n[nH]1,inconclusive: 5.2%
16,O=c1c(/C=C(\O)c2ccccc2)nc2ccccc2n1-c1ccccc1,active: 60.9%
17,COc1ccc(NC(=O)CSc2nnc(-c3ccccc3C)n2C)cc1,inconclusive: 6.8%
18,Cc1onc(-c2ccccc2)c1C(=O)Nc1nc(-c2cc(F)ccc2F)cs1,inactive: -0.1%
19,Cc1ccc2nc(N3CCN(S(=O)(=O)c4ccc(C)c(Cl)c4)CC3)c(C#N)cc2c1,inconclusive: 19.5%
20,CCOc1cc(/C=C2\SC(=S)N(Nc3ccccc3)C2=O)ccc1O,active: 39%
21,CC1(C(=O)NS(=O)(=O)c2ccccc2Cl)CCN1C(=O)Cc1ccc(Cl)cc1Cl (configuration not stated),inactive: 0.5%
22,Cc1ccc(Cl)cc1NC(=O)CCNC(=O)N1CC(=O)Nc2ccccc21,inactive: 0.1%
23,CCOc1ccc(C2C(C#N)=C(N)Oc3c2c(=O)oc2ccccc32)cc1 (configuration not stated),inconclusive: -3.2%

row,Compound,inhibition
1,COc1cc2c(cc1NC(=O)CSc1ccccn1)oc1ccccc12,inconclusive: 0.1%
2,O=C(O)C(c1ccccc1)N1C(=O)/C(=C\c2ccc(-c3cccc(Cl)c3)o2)SC1=S (configuration not stated),active: 39.3%
3,C=CCn1c(=O)/c(=C/c2cc(OC)c(OC)c(OC)c2)s/c1=C(/C#N)c1nc2ccccc2n1C,active: 112%
4,COc1cccc(C(C)(O)c2nc(-c3cccc(NC(C)=O)c3)cs2)c1 (configuration not stated),inactive: 0.1%
5,O=C1C=C(Nc2ccc(O)cc2)CC(c2ccco2)C1 (configuration not stated),inconclusive: -3.2%
6,Cn1nc(C(C)(C)C)cc1C(=O)NCc1ccc(N2CCCC2=O)cc1,inconclusive: -1.8%
7,COc1ccc(CN2C(=O)CCC2(C)c2nnnn2-c2ccc3c(c2)OCCO3)cc1 (configuration not stated),inactive: -0.5%
8,Cc1noc(C)c1-c1nc(CS(=O)(=O)c2ccccc2)no1,inconclusive: 21.7%
9,COc1ccc2c(=O)c(Oc3ccc(C(=O)O)cc3)c(C(F)(F)F)oc2c1,inactive: -1.2%
10,O=S(=O)(c1ccc(Cl)cc1)N1CCCC1c1cccnc1 (configuration not stated),inconclusive: -24.5%
11,COC(=O)C1(C)CCc2cc(OC)ccc2C1=O (configuration not stated),inactive: 0.2%
12,COc1ccc(Cn2c(SCc3cc(C)ccc3C)nc3cc(OC)c(OC)cc3c2=N)cc1,inactive: 0.1%
13,Nc1c(C(=O)NCc2cccnc2)sc(=S)n1-c1ccccc1,inconclusive: 5.5%
14,CC1(C)NC(=O)N(CC(O)COc2ccc(-c3ccc(C#N)cc3)cc2)C1=O (configuration not stated),inconclusive: 4.3%
15,CC(C)C(=O)Nc1nnc(Cc2ccccc2)s1,inconclusive: 22.3%
16,CCN(CC)CCCn1c2c(c(SCC(=O)Nc3nc4ccccc4s3)nc1=O)CCC2,inconclusive: -0.9%
17,COc1ccccc1N(CC(=O)Nc1ccc(S(=O)(=O)N2CCCCC2)cc1)S(C)(=O)=O,inconclusive: -1.2%
18,O=C1/C(=C\c2ccc(-c3ccccc3Cl)o2)SC(=S)N1CC1CCCO1 (configuration not stated),active: 189%
19,Cc1nc(CS(=O)(=O)c2ccccn2)sc1C(=O)NNC(=O)c1ccccc1,inconclusive: -20.1%
20,Cc1ccc(C(=O)Oc2coc(CSc3nnc(NC(=O)C4CC4)s3)cc2=O)cc1C,active: 34.3%
21,Cc1cccc(N2CCN(C(=O)c3ccc(CS(=O)(=O)c4ccccc4C)o3)CC2C)c1 (configuration not stated),inconclusive: 1.3%
22,Cc1cc2c(s1)NC(=O)CN=C2c1cccs1,inconclusive: 1.7%
23,O=C(Nc1ccon1)c1ccc(Cl)s1,inconclusive: -4.4%

row,Compound,inhibition
1,c1ccc(-c2ccc(C3=Nn4c(nnc4-c4cc(-c5ccccc5)n[nH]4)SC3)cc2)cc1,inactive: 3.4%
2,Clc1ccc(Cn2c(-c3cccnc3Cl)nc3ccccc32)c(Cl)c1,inconclusive: 2.9%
3,O=C(Nc1ccccc1)c1ccc(S(=O)(=O)N(CCO)CCO)cc1,inactive: 1%
4,CN(C)c1nc(N2CCN(c3ccc(F)cc3)CC2)c(C#N)c(=O)o1,inconclusive: 0.8%
5,COC(=O)c1sccc1N/N=C(\C)c1ccc(F)c(Cl)c1,inconclusive: 0.6%
6,Cc1cccc(N(Cc2ccccc2)C(=O)c2ccc(CS(C)(=O)=O)cc2)c1,inactive: 0.9%
7,COc1ccc(CC(=O)NCCN2CCOCC2)cc1,inactive: 0.2%
8,CCOc1ncccc1C(=O)OCC(=O)c1c[nH]c2ccccc12,active: 36.8%
9,CC1(C(=O)NC2CCCC2)CCC(=O)N1Cc1ccccc1 (configuration not stated),inconclusive: -1.3%
10,N#Cc1c(SCC(N)=O)nsc1SCc1ccc(Cl)cc1,inconclusive: -0.7%
11,COc1ccccc1-c1ocnc1C(=O)N1CCN(S(=O)(=O)c2ccc(NC(C)=O)cc2)CC1,inactive: -0.4%
12,O=[N+]([O-])c1ccc(Sc2cccc3cccnc23)c([N+](=O)[O-])c1,inconclusive: 5.9%
13,CCNC(=O)C1(C)CCCN(Cc2ccc(Oc3ccccc3)cc2)C1 (configuration not stated),inactive: -0.4%
14,O=C(COc1ccc(Cl)cc1)Nc1nc(-c2ccc(S(=O)(=O)N3CCOCC3)cc2)cs1,inconclusive: -0.6%
15,Cc1cc(C)c2c(C)nn(C3CCCCC3)c2n1,inconclusive: -0.6%
16,CCOc1ccc(OCCn2nnc3ccccc3c2=O)cc1,inactive: 0.5%
17,O=C(NCc1ccccn1)c1cccs1,inconclusive: -5.3%
18,Fc1cc(F)c(F)c(SCn2cc(Br)cn2)c1F,inconclusive: -3.1%
19,CCCC(=O)Nc1ccc(Oc2ccc(NC(=O)CCC)cc2)cc1,inconclusive: 1.4%
20,CCN(CC)C(=O)CSc1nc(N)c(C#N)c(-c2cccs2)c1C#N,inconclusive: 0.6%
21,CN1N=C(C(C)(C)C)CSC1=Nc1ccccc1,inconclusive: 10%
22,O=C(NC(Cc1c[nH]c2ccccc12)C(=O)O)c1ccc(Br)cc1 (configuration not stated),inactive: 0%
23,Cn1c(SCC(=O)NNC(=O)Cc2ccccc2)nnc1-c1ccc(Cl)cc1,inconclusive: 0.9%

# Entries from the list above that contain a COOH group (3):
row,Compound,inhibition
2,O=C(O)C(c1ccccc1)N1C(=O)/C(=C\c2ccc(-c3cccc(Cl)c3)o2)SC1=S (configuration not stated),active: 39.3%
9,COc1ccc2c(=O)c(Oc3ccc(C(=O)O)cc3)c(C(F)(F)F)oc2c1,inactive: -1.2%
22,O=C(NC(Cc1c[nH]c2ccccc12)C(=O)O)c1ccc(Br)cc1 (configuration not stated),inactive: 0%

# The list goes on.

row,Compound,inhibition
1,CCCCNS(=O)(=O)c1ccc(NS(=O)(=O)c2c(C)cc(C)cc2C)cc1,inconclusive: -2.5%
2,CCCC(=O)Nc1ccc(C(=O)NNC(=O)c2cccs2)cc1,inactive: 3.1%
3,CCOC(=O)C(C(=O)OCC)c1cc(Br)c2noc3c2c1C(=O)c1ccccc1-3,active: 67.8%
4,CCc1c(C)c2ccc(OCC(=O)OC)cc2oc1=O,inconclusive: -7.9%
5,Cc1ccc(NC(=O)C(=O)NCCCN2CCCC2=O)cc1,inconclusive: -4.4%
6,CCOC(=O)c1ccc(NCn2c(=O)oc3ccccc32)cc1,inconclusive: 3.4%
7,CCOC(=O)C1=NN(c2ccc(OC)cc2)C2C(=O)N(c3ccccc3OC)C(=O)C12 (configuration not stated),inconclusive: -0.3%
8,Cc1nnc(-c2cccc(Br)c2)c2cn(-c3cccc(Br)c3)nc12,inactive: 8.2%
9,Cc1ccc(NC(=O)CSc2nc3[nH]ncc3c(=O)[nH]2)cc1Cl,inconclusive: -1.2%
10,COC(=O)C(Cc1ccc(OC(=O)c2ccccc2Cl)cc1)N1Cc2ccccc2C1=O (configuration not stated),inactive: 0.3%
11,CC(=NNC(=S)Nc1cccc(C)c1)c1ccccn1,inactive: 5.5%
12,Cc1ccc(NC(=O)CSc2cccc3cccnc23)c(C)c1,inconclusive: -3.2%
13,CCOC(=O)C1CCCCN1Cc1ccc(OC)c(OC)c1OC (configuration not stated),inconclusive: 0.9%
14,O=C1C2CC=CCC2C(=O)N1c1n[nH]c(Cc2ccccc2)n1 (configuration not stated),inconclusive: -0.9%
15,O=C(CCS(=O)(=O)c1ccc(Br)s1)NCc1ccc2c(c1)OCO2,inconclusive: 2.4%
16,CC1C/C(=N/NC(=O)c2cccs2)CC(C)(C)C1 (configuration not stated),inconclusive: -2.4%
17,CC(C)(C)OC(=O)NCCc1nnc(SCC(=O)Nc2ccc(Br)cc2)o1,inactive: -0.9%
18,CCc1ccccc1NC(=O)c1cccc(N2C(=O)C3C4CCC(C4)C3C2=O)c1 (configuration not stated),inconclusive: -1.8%
19,COc1ccccc1C(=O)NC(=O)COC(=O)Cn1cnc2c1c(=O)n(C)c(=O)n2C,inconclusive: 4.8%
20,Cc1ccc(C(CC(=O)O)Nc2nc(N3CCOCC3)nc(N3CCOCC3)n2)cc1 (configuration not stated),inactive: -0.6%
21,CCCCOC(=O)CCN1C(=O)/C(=C2\SC(=S)N(CCC(=O)OCCCC)C2=O)SC1=S,active: 30.5%
22,CC(C)CC(=O)N1CCN(Cc2ccccc2Br)CC1,inconclusive: -1.4%
23,COC(=O)C1=C(C)NC2=C(C(=O)CC(C)(C)C2)C1c1cccc(C)n1 (configuration not stated),inactive: -0.4%

# Reference: PubChem BioAssay AID588499 (NMMLSC, 2011)
